Experimental findings from paper PMC12644819 (Nature Communications, 2025) are described below.

The chains behind the UniProt entries cited, without tags or fusion partners. Residues count along the entry.
UniProt P31554, residues 25-784: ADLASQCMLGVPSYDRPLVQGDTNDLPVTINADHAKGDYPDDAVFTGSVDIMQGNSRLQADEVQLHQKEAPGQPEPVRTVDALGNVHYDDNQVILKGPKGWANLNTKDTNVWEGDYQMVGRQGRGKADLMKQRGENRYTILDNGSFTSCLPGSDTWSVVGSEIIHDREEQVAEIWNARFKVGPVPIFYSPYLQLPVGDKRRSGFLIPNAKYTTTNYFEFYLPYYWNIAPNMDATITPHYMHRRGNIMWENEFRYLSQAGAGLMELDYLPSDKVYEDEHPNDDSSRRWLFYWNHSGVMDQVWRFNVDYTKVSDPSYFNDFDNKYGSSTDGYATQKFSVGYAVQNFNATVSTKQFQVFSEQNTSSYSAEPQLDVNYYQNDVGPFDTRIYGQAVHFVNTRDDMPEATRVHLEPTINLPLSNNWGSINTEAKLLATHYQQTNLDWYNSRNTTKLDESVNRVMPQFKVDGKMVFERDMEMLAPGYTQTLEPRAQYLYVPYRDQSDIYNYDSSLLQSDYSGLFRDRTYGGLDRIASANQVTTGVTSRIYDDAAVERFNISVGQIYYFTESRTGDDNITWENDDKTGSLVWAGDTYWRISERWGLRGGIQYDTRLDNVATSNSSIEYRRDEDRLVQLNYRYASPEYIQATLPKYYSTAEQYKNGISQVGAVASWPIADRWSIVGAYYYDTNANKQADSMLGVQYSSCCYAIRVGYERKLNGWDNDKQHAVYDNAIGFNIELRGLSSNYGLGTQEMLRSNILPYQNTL
UniProt P0ADC1, residues 19-193: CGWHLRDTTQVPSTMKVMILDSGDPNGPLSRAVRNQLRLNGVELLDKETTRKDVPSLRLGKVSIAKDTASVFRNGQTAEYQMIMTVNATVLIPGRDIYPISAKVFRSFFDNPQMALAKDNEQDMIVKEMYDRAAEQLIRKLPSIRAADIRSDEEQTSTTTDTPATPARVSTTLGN

The target of experiment [1] is T1, LptY^His (E. coli) (UniProt P31063).
T1 sequence (chain, lipoprotein): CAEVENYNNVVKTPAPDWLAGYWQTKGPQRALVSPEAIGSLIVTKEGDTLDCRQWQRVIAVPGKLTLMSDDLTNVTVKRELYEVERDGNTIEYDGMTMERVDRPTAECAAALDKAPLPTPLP
The experiment in a line: pull-down; nickel-affinity pull-down of LptY^His or LptM^His from cells co-expressing endogenous LptD and LptD^β-barrel (Supplementary Fig. 10b).

Experiment [2] concerns the target T1, LptY^His (E. coli). Briefly: pull-down; LptY^His nickel-affinity purification from DDM-solubilised envelope fraction; Western blot (Supplementary Fig. 5).

Results are given in words; binding and its absence hold for the method and conditions named. In cells and extracts the contact can be indirect. Some results given as binding are weak or reduced against the parent protein; the word gives no strength. Tags and fused reporters may be left off the sequences shown.

Consider LptD (from UniProt P31554 25-784), for which the binding entry with LptY^His (E. coli) [1] and with LptY^His (E. coli) [2] was “binds” throughout. As to LptE (from UniProt P0ADC1 19-193), the binding result in the experiment with LptY^His (E. coli) [2] is listed as “binds”.

B1: LptA (protein, UniProt P0ADV1 28-185)
chain: VTGDTDQPIHIESDQQSLDMQGNVVTFTGNVIVTQGTIKINADKVVVTRPGGEQGKEVIDGYGKPATFYQMQDNGKPVEGHASQMHYELAKDFVVLTGNAYLQQVDSNIKGDKITYLVKEQKMQAFSDKGKRVTTVLVPSQLQDKNNKGQTPAQKKGN
As for B1, in the experiment with LptY^His (E. coli) [2], the binding result is listed as “binds”. The same measure, in the same setting: for CGLKGPLYFPPADKNAPPPTKPVETQTQSTVPDKNDRATGDGPSQVNY (peptide, UniProt P0ADN6 20-67, lipoprotein; acyl tails on the N-terminal Cys) [LptM] the value was “binds”.
